From patent US20070117842A1, “Polymorph of 4-[3-chloro-4-(cyclopropylaminocarbonyl)aminophenoxy]-7-methoxy-6- quinolinecarboxamide and a process for the preparation of the same” (priority 2003, published 2007) come the findings set out here.

Protein sequences, listed by entry. Tags and fused reporters are not part of them. Residues count along the entry.
UniProt P10721, 26-976: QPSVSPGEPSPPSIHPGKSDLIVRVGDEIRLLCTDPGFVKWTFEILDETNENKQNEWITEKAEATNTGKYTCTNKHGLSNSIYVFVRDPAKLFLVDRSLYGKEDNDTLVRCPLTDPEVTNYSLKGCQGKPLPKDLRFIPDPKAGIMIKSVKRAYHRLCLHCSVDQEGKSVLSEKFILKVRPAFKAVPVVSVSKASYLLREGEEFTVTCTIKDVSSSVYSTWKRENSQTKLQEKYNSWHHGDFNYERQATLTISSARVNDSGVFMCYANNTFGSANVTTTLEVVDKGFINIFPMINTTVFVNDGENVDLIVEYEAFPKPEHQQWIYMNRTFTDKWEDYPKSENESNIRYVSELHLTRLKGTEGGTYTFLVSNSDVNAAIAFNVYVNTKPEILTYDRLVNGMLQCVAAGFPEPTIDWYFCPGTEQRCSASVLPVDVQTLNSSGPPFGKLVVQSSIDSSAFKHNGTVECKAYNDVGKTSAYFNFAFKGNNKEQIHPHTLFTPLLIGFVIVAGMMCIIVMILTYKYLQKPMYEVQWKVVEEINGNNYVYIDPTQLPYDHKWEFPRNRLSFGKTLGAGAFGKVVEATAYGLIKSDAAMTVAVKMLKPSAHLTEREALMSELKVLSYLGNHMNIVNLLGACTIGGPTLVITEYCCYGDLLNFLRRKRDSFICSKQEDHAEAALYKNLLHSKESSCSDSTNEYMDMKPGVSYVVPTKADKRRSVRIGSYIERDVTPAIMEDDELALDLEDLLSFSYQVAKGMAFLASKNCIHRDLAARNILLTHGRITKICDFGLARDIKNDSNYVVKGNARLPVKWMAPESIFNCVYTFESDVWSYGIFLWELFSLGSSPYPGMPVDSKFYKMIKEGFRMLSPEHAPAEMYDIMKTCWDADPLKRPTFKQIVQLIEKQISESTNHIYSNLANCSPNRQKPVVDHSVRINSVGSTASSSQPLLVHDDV

In one assay the target is c-Kit kinase (Homo sapiens, UniProt P10721). Briefly: Effect on c-Kit kinase phosphorylation by SCF stimulation (immunoblot). Conditions: H-526 cells. Further details: in the small cell lung cancer cell line H-526 expressing c-Kit kinase; host or cells: H-526 small cell lung cancer cells. Format: cell-based. Here is the method: 4-(3-Chloro-4-(cyclopropylaminocarbonyl)aminophenoxy)-7-methoxy-6-quinolinecarboxamide was tested for its effect on the phosphorylation of the c-Kit kinase molecule by SCF stimulation in the small cell lung cancer cell line H-526 expressing c-Kit kinase.
H-526 cells were cultured in a 5% CO2 incubator (37° c.) using an RPMI1640 medium containing 10% FCS. After culturing, H-526 cells were washed with PBS three times and were suspended in a BSA-RPMI1640 medium at 5.0×10^5 cells/ml. Each 1 ml of this cell suspension was inoculated to the well of a 24-well plate and the suspension was cultured in a 5% CO2 incubator (37° c.) for 6 hours. After 6-hours culturing, 1 ml of BSA-RPMI1640 containing a diluted test substance (4-(3-Chloro-4-(cyclopropylaminocarbonyl)aminophenoxy)-7-methoxy-6-quinolinecarboxamide) was added to each well and culturing was carried out in a 5% CO2 incubator (37° c.) for 1 hour. Additional culturing was then carried out in a 5% CO2 incubator (37° c.) for 5 minutes after the addition of 10 μl of SCF (10 μg/ml, R&D Corporation). After 5-minutes culturing, the cells were washed with PBS and 100 μl of SDS sample loading buffer was added to the cells to prepare a cell lysate sample. After the sample was heat-treated at 94° c. for 10 minutes, it was cryopreserved at −20° c. […]
(In general: A western blot detects proteins with antibodies after separation by electrophoresis.)

Assay [1] deals with small cell lung cancer cell line H-526 expressing c-Kit kinase. Briefly: Effect on cell proliferation stimulated by SCF. Format: cell-based. To be noted: Homo sapiens, NCI-H526; H-526 cells, SCF stimulation, 7th day, Cell Counting Kit-8; read-out: IC50 (concentration required for 50% inhibition of the cell proliferation). The method, then: 4-(3-Chloro-4-(cyclopropylaminocarbonyl)aminophenoxy)-7-methoxy-6-quinolinecarboxamide was tested for their effects on the proliferation of the small cell lung cancer cell line H-526 expressing c-Kit kinase (purchased from ATCC: CRL-5811). 4-(3-Chloro-4-(cyclopropylaminocarbonyl)aminophenoxy)-7-methoxy-6-quinolinecarboxamide was prepared similarly to the method described in Preparation Examples 1 to 3. H-526 cells were cultured in a 5% CO2 incubator (37° c.) using an RPMI1640 medium (Nissui Pharmaceutical Co., Ltd.) containing 10% FCS (purchased from Cell Culture Technologies). After culturing, H-526 cells were washed with PBS three times and were suspended in an RPMI1640 medium containing 0.1% BSA (Sigma Corporation) (hereinafter abbreviated as “BSA-RPMI1640”) at 1.0×10^5 cells/ml. […] After color development, the absorbance of each well was determined using a MTP-32 plate reader (Colona Electric Co., Ltd.) at a measuring wavelength of 450 nm and at a reference wavelength of 660 nm. The absorbance of each well was subtracted by the absorbance of the well without addition of SCF, and then the ratio of the absorbance of the well with addition of the test substance to the ratio of the absorbance of the well without addition of the test substance was determined. […]
In general terms: Formazan colour is commonly taken as a measure of viable cells.

`Cc1ccc(NC(=O)c2ccc(CN3CCN(C)CC3)cc2)cc1Nc1nccc(-c2cccnc2)n1` [STI571, reference compound]: the “phosphorylation inhibitory activity relative to 4-(3-chloro-4-(cyclopropylaminocarbonyl)aminophenoxy)-7-methoxy-6-quinolinecarboxamide” value on c-Kit kinase is “approximately one tenth”. Further, the IC50 in assay [1] worked out at 190 nM.
